# Laboratory results: PubChem BioAssay AID743255 (National Center for Advancing Translational Sciences (NCATS), 2014)
# Sequences of proteins named here, by UniProt entry; tags and fusion partners are left off. A change or cut given only in a name is not applied to a line headed by its entry.
# UniProt O94782: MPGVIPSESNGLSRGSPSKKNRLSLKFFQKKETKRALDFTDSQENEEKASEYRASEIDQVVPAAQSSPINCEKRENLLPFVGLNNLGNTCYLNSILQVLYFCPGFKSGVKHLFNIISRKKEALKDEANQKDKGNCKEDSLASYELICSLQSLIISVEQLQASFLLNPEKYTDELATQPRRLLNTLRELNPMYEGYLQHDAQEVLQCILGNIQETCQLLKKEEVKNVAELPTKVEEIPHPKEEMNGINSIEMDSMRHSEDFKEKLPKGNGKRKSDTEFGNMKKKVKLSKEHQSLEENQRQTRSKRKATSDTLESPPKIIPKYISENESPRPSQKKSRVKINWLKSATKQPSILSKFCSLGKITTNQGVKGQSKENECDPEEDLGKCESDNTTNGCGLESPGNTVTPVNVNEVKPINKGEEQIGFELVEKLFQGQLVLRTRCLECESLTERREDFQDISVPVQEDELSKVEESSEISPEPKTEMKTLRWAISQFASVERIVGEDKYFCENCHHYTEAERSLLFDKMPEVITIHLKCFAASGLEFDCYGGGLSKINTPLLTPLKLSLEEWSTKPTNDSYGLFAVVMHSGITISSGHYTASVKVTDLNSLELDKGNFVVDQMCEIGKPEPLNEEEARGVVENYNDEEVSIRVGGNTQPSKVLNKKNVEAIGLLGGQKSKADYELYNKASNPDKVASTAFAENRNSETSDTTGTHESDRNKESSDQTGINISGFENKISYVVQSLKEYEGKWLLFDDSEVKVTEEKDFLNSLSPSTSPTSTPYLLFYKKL
# Hit rate of the full screen: of about 390,000 compounds, about 910 (0.23%) were called active. The shares of active, inactive and inconclusive entries below differ from those in the screen. Calls come from the whole dose curve; as a rule, active = well fitted inhibition curve with a large enough effect; inconclusive = small, poorly fitted or top-dose-only effect; inactive = no such curve, though single readings can be large or run the other way. Potencies of inconclusive entries are doubtful fits and often do not repeat.
# Target: Ubiquitin carboxyl-terminal hydrolase 1 (Homo sapiens) (UniProt O94782)
# Test: Inhibitors of USP1/UAF1: Primary Screen; note: nearly all actives have a fitted effect of over 60% in size
# Conditions: recombinant USP1/UAF1, Ub-Rhodamine cleavage fluorescence; activity change, negative = inhibition: at 57.1 µM (top of the series)
# How it was run: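 1 nM enzyme complex + cpd, 15 min RT; start with Ub-Rho 150nM final; kinetic fluorescence ex 480/em 540, 6 reads q60 s. Buffer 50mM HEPES pH 7.8, 0.5mM EDTA, 0.1 mg/ml BSA, 1mM TCEP, 0.01% Tween-20.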
# % is set by controls: 0 for no effect and ±100 for the full control effect; potency is the fitted concentration of half-maximal effect.
SMILES,"activity change, negative = inhibition",Potency
CCOC(=O)CSc1nc2c(c(=O)[nH]c(=O)n2C)n1CCc1ccccc1,inactive: -18.4%,
CC(C)(C)[C@H](N)C(=O)N[C@H]1CCC2C3CC=C4C[C@@H](O)CC[C@]4(C)C3CC[C@@]21C (stereo partly specified),,"inconclusive: 44.7 µM [inhibitor, partial curve, poor fit]"
CCC(Sc1nc(-c2ccccc2F)nc2c1Cc1c(CO)cnc(C)c1O2)C(=O)Nc1cc(C)ccc1C (stereo unspecified),,"inconclusive: 7.08 µM [inhibitor, single point]"
O=C(O)c1ccc(N2CCCCS2(=O)=O)cc1,,"inconclusive: 8.91 µM [inhibitor, partial curve, poor fit]"
O=C(CCCl)Nc1nc2c(s1)CCc1ccccc1-2,,"inconclusive: 50.1 µM [inhibitor, partial curve, poor fit]"
COc1ccc(-c2c3c(=O)n(C)c(=O)n(C)c3c3n2-c2ccccc2NC3c2ccco2)cc1 (stereo unspecified),,"inconclusive: 5.62 µM [inhibitor, full curve, poor fit]"
Cc1cc(=O)n(CC(=O)N2CCN(c3ccccc3F)CC2)c2c1c(C)nn2C,,"inconclusive: 70.8 µM [inhibitor, partial curve, poor fit]"
CCCC(c1nnnn1Cc1ccco1)N1CCN(c2ccccc2)CC1 (stereo unspecified),,"inconclusive: 7.08 µM [inhibitor, single point]"
COc1cc(/C=C(\C#N)c2nc3ccccc3[nH]2)cc(OC)c1O,,"inconclusive: 39.8 µM [inhibitor, partial curve, poor fit]"
Nc1ccc(-c2nc3ccc(-c4nc5ccccc5o4)cc3[nH]2)cc1,inactive: -6.82%,
CC(C)CCNC(=O)c1onc(CSc2ccc(F)c(F)c2)c1C(=O)NCCC(C)C,,"inconclusive: 44.7 µM [inhibitor, partial curve, poor fit]"
COCc1c(C(=O)OCC(=O)c2ccc[nH]2)oc2ccccc12,,"inconclusive: 5.01 µM [inhibitor, full curve, poor fit]"
CN(C)CCCNC(=S)Nc1ccc(-c2ccccc2)cc1,inactive: -13.6%,
COc1ccc(-c2cc(C(C)=O)c(C)n2CCC(=O)Nc2cc(Cl)ccc2C)cc1,inactive: -23.6%,
CCOC(=O)C1CCN(S(=O)(=O)c2ccc3c(c2)N(C)C(=O)CC(=O)N3C)CC1,,"inconclusive: 7.08 µM [inhibitor, partial curve, poor fit]"
COc1ccc(OC)c(NC(=O)CN(c2ccc(C(C)C)cc2)S(=O)(=O)c2c(C)noc2C)c1,,"inconclusive: 0.794 µM [inhibitor, full curve, poor fit]"
C=CCNC(=O)CC(=O)N/N=C/c1cccc(Br)c1,,"inconclusive: 35.5 µM [inhibitor, single point]"
COc1ccc(-c2nc3c(C#N)c[nH]n3c2NC2CCCC2)c(OC)c1,,"inconclusive: 0.708 µM [inhibitor, full curve, poor fit]"
N#CC1=C2C=Cc3ccccc3N2CCCC1=O,inactive: -6.47%,
CCCNC(=O)c1nc(C)n(-c2cc(Cl)ccc2Cl)n1,,"inconclusive: 7.94 µM [inhibitor, partial curve]"
CC(/C=C1\SC(=S)N(CCCC(=O)Nc2ccc(C(=O)O)c(O)c2)C1=O)=C\c1ccccc1,inactive: -13.4%,

SMILES,"activity change, negative = inhibition",Potency
O=C1[C@@H]2C(c3ccc(F)cc3)=NO[C@@H]2C(=O)N1Cc1ccccc1,inactive: -7.92%,
O=c1oc2c(CN3CCN(CCO)CC3)c(O)ccc2cc1-c1ccccc1,,"inconclusive: 0.355 µM [inhibitor, full curve]"
COc1ccc2nc(C)cc(N/N=C/c3cccc(OC)c3O)c2c1,inactive: -21.9%,
COC(=O)c1ccc(OCC2c3cc(OC)c(OC)cc3CCN2C(=O)c2ccc(F)cc2)cc1 (stereo unspecified),,"inconclusive: 0.355 µM [inhibitor, full curve, poor fit]"
COc1ccc2cc(C3CC(c4ccco4)=NN3S(C)(=O)=O)c(Cl)nc2c1 (stereo unspecified),inactive: -16.9%,
Cc1cccn2c(=O)c3cc(C(=O)NC(C)c4ccccc4)c(=N)n(CCCO)c3nc12 (stereo unspecified),,"inconclusive: 6.31 µM [inhibitor, single point]"
Cc1ccc2c(=O)cc(C(=O)Nc3cccc(C(F)(F)F)c3)oc2c1C,,"inconclusive: 31.6 µM [inhibitor, partial curve, poor fit]"
CCOC(=O)c1c(C)[nH]c(C)c1S(=O)(=O)N1CCCC(C(=O)N2CCN(c3ccccc3)CC2)C1 (stereo unspecified),,"inconclusive: 2.51 µM [inhibitor, full curve]"
COc1cc(C(=O)N/N=C(\C)c2ccccn2)cc(OC)c1OC,,"inconclusive: 44.7 µM [inhibitor, partial curve, poor fit]"
COc1ccc(Cn2c(=O)c3oc4ccccc4c3n(Cc3ccc(Cl)cc3)c2=O)cc1,,"inconclusive: 5.62 µM [inhibitor, full curve, poor fit]"
CN(C)CCC1Sc2ccccc2Oc2ccccc21 (stereo unspecified),inactive: -8.15%,
CCN(CC)c1nc2ccccc2nc1C(=O)Nc1cccc(C(C)=O)c1,inactive: -14.3%,
COC(CNC(=O)c1cccnc1)OC,inactive: -15.3%,
Cc1ccc2sc(NC(=O)c3ccc4c(c3)OCCO4)nc2c1C,,"inconclusive: 89.1 µM [inhibitor, partial curve, poor fit]"
Cc1ccccc1Cn1c(CN2CCC(C(=O)NCCc3ccccc3)CC2)cc2ccccc21,,"inconclusive: 15.8 µM [inhibitor, partial curve, poor fit]"
CC1CCN(C(=O)c2ccc(NS(=O)(=O)c3cccs3)cc2)CC1,,"inconclusive: 39.8 µM [inhibitor, single point]"
O=c1c([N+](=O)[O-])cn(Cc2ccccc2)c(=O)n1Cc1ccccc1,,"inconclusive: 50.1 µM [inhibitor, partial curve, poor fit]"
O=C(CSc1nnc(-c2ccc(Cl)cc2Cl)n1C1CCCCC1)NC1CCS(=O)(=O)C1 (stereo unspecified),,"inconclusive: 0.398 µM [inhibitor, full curve, poor fit]"
O=C(NCC1CCCO1)c1cccc(S(=O)(=O)Nc2ccccc2Cl)c1 (stereo unspecified),,"inconclusive: 0.251 µM [inhibitor, full curve, poor fit]"
CCN(Cc1ccccc1)C(=O)CC1Oc2ccccc2NC1=O (stereo unspecified),,"inconclusive: 39.8 µM [inhibitor, partial curve]"

# Copied from above (2 entries):
SMILES,"activity change, negative = inhibition",Potency
Cc1ccc2sc(NC(=O)c3ccc4c(c3)OCCO4)nc2c1C,,"inconclusive: 89.1 µM [inhibitor, partial curve, poor fit]"
Cc1ccccc1Cn1c(CN2CCC(C(=O)NCCc3ccccc3)CC2)cc2ccccc21,,"inconclusive: 15.8 µM [inhibitor, partial curve, poor fit]"
